# Experimental data from the supplement of paper PMC8728848.
# The list shows a part of the results.
# Experiments:
# Assay in all cases: glycan array binding signal (z-score within array); higher = stronger binding
# Conditions in all cases: glycan notation: IUPAC condensed, linker removed
# [1] = target: Gal(b1-3)GlcNAc(b1-2)Man(a1-3)[GlcNAc(b1-4)][Gal(b1-3)GlcNAc(b1-2)Man(a1-6)]Man(b1-4)GlcNAc(b1-4)GlcNAc
# Summary of the method: (§1)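 Columns mapping to the same glycan were averaged after glycan names were converted to IUPAC-condensed notation. The data come from 3228 arrays in the Consortium for Functional Glycomics database, limited to those with an available protein sequence. Binding is reported as a within-array Z-score averaged across arrays of one protein sequence and across linkers.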
# [2] = target: Gal(b1-3)GlcNAc(b1-2)[Gal(b1-3)GlcNAc(b1-6)]Man(a1-6)[Gal(b1-3)GlcNAc(b1-2)Man(a1-3)]Man(b1-4)GlcNAc(b1-4)GlcNAc
# Summary of the method: as §1
# [3] = target: Gal(b1-3)GlcNAc(b1-3)Gal(b1-3)GlcNAc
# Summary of the method: as §1
# [4] = target: Gal(b1-3)GlcNAc(b1-3)Gal(b1-4)Glc
# Summary of the method: as §1
# [5] = target: Gal(b1-3)GlcNAc(b1-3)Gal(b1-4)GlcNAc
# Summary of the method: as §1
# [6] = target: Gal(b1-3)GlcNAc(b1-3)Gal(b1-4)GlcNAc(b1-2)Man(a1-3)[Gal(b1-3)GlcNAc(b1-3)Gal(b1-4)GlcNAc(b1-2)Man(a1-6)]Man(b1-4)GlcNAc(b1-4)GlcNAc
# Summary of the method: as §1
# [7] = target: Gal(b1-3)GlcNAc(b1-3)Gal(b1-4)GlcNAc(b1-2)[Gal(b1-3)GlcNAc(b1-3)Gal(b1-4)GlcNAc(b1-6)]Man(a1-6)[Gal(b1-3)GlcNAc(b1-3)Gal(b1-4)GlcNAc(b1-2)Man(a1-3)]Man(b1-4)GlcNAc(b1-4)[Fuc(a1-6)]GlcNAc
# Summary of the method: as §1
# [8] = target: Gal(b1-3)GlcNAc(b1-3)Gal(b1-4)GlcNAc(b1-3)Gal(b1-4)GlcNAc(b1-2)[Gal(b1-3)GlcNAc(b1-3)Gal(b1-4)GlcNAc(b1-3)Gal(b1-4)GlcNAc(b1-6)]Man(a1-6)[Gal(b1-3)GlcNAc(b1-3)Gal(b1-4)GlcNAc(b1-3)Gal(b1-4)GlcNAc(b1-2)Man(a1-3)]Man(b1-4)GlcNAc(b1-4)[Fuc(a1-6)]GlcNAc
# Summary of the method: as §1
# [9] = target: Gal(b1-3)GlcNAc(b1-3)Gal(b1-4)GlcNAc(b1-6)[Gal(b1-3)GlcNAc(b1-3)]Gal(b1-4)Glc
# Summary of the method: as §1
# [10] = target: Gal(b1-3)GlcNAc(b1-3)Gal(b1-4)[Fuc(a1-3)]GlcNAc
# Summary of the method: as §1
# [11] = target: Gal(b1-3)GlcNAc(b1-3)Gal(b1-4)[Fuc(a1-3)]GlcNAc(b1-6)[Gal(b1-3)GlcNAc(b1-3)]Gal(b1-4)Glc
# Summary of the method: as §1
# [12] = target: Gal(b1-3)GlcNAc(b1-3)GalNAc
# Summary of the method: as §1
# [13] = target: Gal(b1-3)GlcNAc(b1-6)Gal(b1-4)GlcNAc
# Summary of the method: as §1
# [14] = target: Gal(b1-3)GlcNAc(b1-6)GalNAc
# Summary of the method: as §1
# [15] = target: Gal(b1-3)GlcNAc(b1-6)[Gal(b1-3)]GalNAc
# Summary of the method: as §1
# Gal(b1-3)GlcNAc6S = target: Gal(b1-3)GlcNAc6S
# Summary of the method: as §1
# [16] = target: Gal(b1-3)[Fuc(a1-4)]GlcNAc
# Summary of the method: as §1
# [17] = target: Gal(b1-3)[Fuc(a1-4)]GlcNAc(b1-2)Man
# Summary of the method: as §1
# [18] = target: Gal(b1-3)[Fuc(a1-4)]GlcNAc(b1-2)Man(a1-3)[Gal(b1-3)[Fuc(a1-4)]GlcNAc(b1-2)Man(a1-6)]Man(b1-4)GlcNAc(b1-4)[Fuc(a1-6)]GlcNAc
# Summary of the method: as §1
# [19] = target: Gal(b1-3)[Fuc(a1-4)]GlcNAc(b1-3)Gal(b1-3)[Fuc(a1-4)]GlcNAc
# Summary of the method: as §1
# [20] = target: Gal(b1-3)[Fuc(a1-4)]GlcNAc(b1-3)Gal(b1-4)[Fuc(a1-3)]GlcNAc
# Summary of the method: as §1
# [21] = target: Gal(b1-3)[Fuc(a1-4)]GlcNAc(b1-6)GalNAc
# Summary of the method: as §1
# [22] = target: Gal(b1-3)[GlcNAc(b1-6)]GalNAc
# Summary of the method: as §1
# [23] = target: Gal(b1-3)[Neu5Ac(a2-6)]GalNAc
# Summary of the method: as §1
# [24] = target: Gal(b1-3)[Neu5Ac(a2-6)]GlcNAc(b1-4)Gal(b1-4)Glc
# Summary of the method: as §1
# [25] = target: Gal(b1-3)[Neu5Ac(b2-6)]GalNAc
# Summary of the method: as §1
# Gal(b1-4)Gal = target: Gal(b1-4)Gal
# Summary of the method: as §1
# [26] = target: Gal(b1-4)GalNAc(a1-3)[Fuc(a1-2)]Gal(b1-4)GlcNAc
# Summary of the method: as §1
# [27] = target: Gal(b1-4)GalNAc(b1-3)[Fuc(a1-2)]Gal(b1-4)GlcNAc
# Summary of the method: as §1
# Gal(b1-4)Glc = target: Gal(b1-4)Glc
# Summary of the method: as §1
# Gal(b1-4)Glc6S = target: Gal(b1-4)Glc6S
# Summary of the method: as §1
# Gal(b1-4)GlcNAc = target: Gal(b1-4)GlcNAc
# Summary of the method: as §1
# [28] = target: Gal(b1-4)GlcNAc(a1-6)Gal(b1-4)GlcNAc
# Summary of the method: as §1
# Gal(b1-4)GlcNAc(b1-2)Man = target: Gal(b1-4)GlcNAc(b1-2)Man
# Summary of the method: as §1
# [29] = target: Gal(b1-4)GlcNAc(b1-2)Man(a1-3)Man(b1-4)GlcNAc(b1-4)GlcNAc
# Summary of the method: as §1
# [30] = target: Gal(b1-4)GlcNAc(b1-2)Man(a1-3)[Gal(b1-4)GlcNAc(b1-2)Man(a1-6)]Man(b1-4)GlcNAc(b1-4)GlcNAc
# Summary of the method: as §1
# [31] = target: Gal(b1-4)GlcNAc(b1-2)Man(a1-3)[Gal(b1-4)GlcNAc(b1-2)Man(a1-6)]Man(b1-4)GlcNAc(b1-4)[Fuc(a1-6)]GlcNAc
# Summary of the method: as §1
# [32] = target: Gal(b1-4)GlcNAc(b1-2)Man(a1-3)[Gal(b1-4)GlcNAc(b1-2)Man(a1-6)][Gal(b1-4)GlcNAc(b1-4)]Man(b1-4)GlcNAc(b1-4)[Fuc(a1-6)]GlcNAc
# Summary of the method: as §1
# [33] = target: Gal(b1-4)GlcNAc(b1-2)Man(a1-3)[Gal(b1-4)GlcNAc(b1-2)Man(a1-6)][GlcNAc(b1-4)]Man(b1-4)GlcNAc(b1-4)[Fuc(a1-6)]GlcNAc
# Summary of the method: as §1
# [34] = target: Gal(b1-4)GlcNAc(b1-2)Man(a1-3)[GlcNAc(b1-2)Man(a1-6)]Man(b1-4)GlcNAc(b1-4)GlcNAc
# Summary of the method: as §1
# [35] = target: Gal(b1-4)GlcNAc(b1-2)Man(a1-3)[GlcNAc(b1-4)][Gal(b1-4)GlcNAc(b1-2)Man(a1-6)]Man(b1-4)GlcNAc(b1-4)GlcNAc
# Summary of the method: as §1
# [36] = target: Gal(b1-4)GlcNAc(b1-2)Man(a1-3)[Man(a1-6)]Man(b1-4)GlcNAc(b1-4)GlcNAc
# Summary of the method: as §1
# [37] = target: Gal(b1-4)GlcNAc(b1-2)Man(a1-6)Man(b1-4)GlcNAc(b1-4)GlcNAc
# Summary of the method: as §1
# [38] = target: Gal(b1-4)GlcNAc(b1-2)Man(a1-6)[GlcNAc(b1-2)Man(a1-3)]Man(b1-4)GlcNAc(b1-4)GlcNAc
# Summary of the method: as §1
# [39] = target: Gal(b1-4)GlcNAc(b1-2)Man(a1-6)[Man(a1-3)]Man(b1-4)GlcNAc(b1-4)GlcNAc
# Summary of the method: as §1
binder,measurement,setting,value
Pbx1CASH domain (Cryptococcus neoformans) (protein) MDETKPLWGNPRADGISLACKDSIVERNVVYDATDGAIVLFGSAGSTVKNNHVYARTRVILGGINLVDYEPWDGDYTNVKVHHNHLYALGRYFKVGIVIGPASWSDDTESVVHSASVTDNEFSGGYWGYGIVVASAKNFEVLRNKVIWDGEQGVARFSGVPGS,glycan array binding signal (z-score),[1],0.331
same,glycan array binding signal (z-score),[2],0.784
same,glycan array binding signal (z-score),[3],-0.464
same,glycan array binding signal (z-score),[4],-0.602
same,glycan array binding signal (z-score),[5],-0.422
same,glycan array binding signal (z-score),[6],-0.328
same,glycan array binding signal (z-score),[7],-0.438
same,glycan array binding signal (z-score),[8],0.49
same,glycan array binding signal (z-score),[9],0.76
same,glycan array binding signal (z-score),[10],-0.17
same,glycan array binding signal (z-score),[11],-0.446
same,glycan array binding signal (z-score),[12],1.17
same,glycan array binding signal (z-score),[13],0.195
same,glycan array binding signal (z-score),[14],0.181
same,glycan array binding signal (z-score),[15],1.3
same,glycan array binding signal (z-score),Gal(b1-3)GlcNAc6S,1.34
same,glycan array binding signal (z-score),[16],-0.336
same,glycan array binding signal (z-score),[17],1.14
same,glycan array binding signal (z-score),[18],-0.007
same,glycan array binding signal (z-score),[19],-1
same,glycan array binding signal (z-score),[20],0.111
same,glycan array binding signal (z-score),[21],0.923
same,glycan array binding signal (z-score),[22],-0.562
same,glycan array binding signal (z-score),[23],-0.674
same,glycan array binding signal (z-score),[24],0.189
same,glycan array binding signal (z-score),[25],-0.655
same,glycan array binding signal (z-score),Gal(b1-4)Gal,1.1
same,glycan array binding signal (z-score),[26],-0.791
same,glycan array binding signal (z-score),[27],-0.748
same,glycan array binding signal (z-score),Gal(b1-4)Glc,-0.237
same,glycan array binding signal (z-score),Gal(b1-4)Glc6S,-0.632
same,glycan array binding signal (z-score),Gal(b1-4)GlcNAc,-0.813
same,glycan array binding signal (z-score),[28],-0.645
same,glycan array binding signal (z-score),Gal(b1-4)GlcNAc(b1-2)Man,0.337
same,glycan array binding signal (z-score),[29],-0.434
same,glycan array binding signal (z-score),[30],0.009
same,glycan array binding signal (z-score),[31],-0.339
same,glycan array binding signal (z-score),[32],0.254
same,glycan array binding signal (z-score),[33],0.423
same,glycan array binding signal (z-score),[34],-0.194
same,glycan array binding signal (z-score),[35],0.433
same,glycan array binding signal (z-score),[36],-0.015
same,glycan array binding signal (z-score),[37],-0.018
same,glycan array binding signal (z-score),[38],-0.228
same,glycan array binding signal (z-score),[39],0.527

# 2 records drawn at random from those above, as already listed:
binder,measurement,setting,value
Pbx1CASH domain (Cryptococcus neoformans) (protein) MDETKPLWGNPRADGISLACKDSIVERNVVYDATDGAIVLFGSAGSTVKNNHVYARTRVILGGINLVDYEPWDGDYTNVKVHHNHLYALGRYFKVGIVIGPASWSDDTESVVHSASVTDNEFSGGYWGYGIVVASAKNFEVLRNKVIWDGEQGVARFSGVPGS,glycan array binding signal (z-score),[32],0.254
same,glycan array binding signal (z-score),[9],0.76
